Consider 1 compound from patent US20230201217A1 (priority 2019, published 2023).

Sequences of proteins named here, by UniProt entry; tags and fusion partners are left off.
UniProt P08684, whole entry: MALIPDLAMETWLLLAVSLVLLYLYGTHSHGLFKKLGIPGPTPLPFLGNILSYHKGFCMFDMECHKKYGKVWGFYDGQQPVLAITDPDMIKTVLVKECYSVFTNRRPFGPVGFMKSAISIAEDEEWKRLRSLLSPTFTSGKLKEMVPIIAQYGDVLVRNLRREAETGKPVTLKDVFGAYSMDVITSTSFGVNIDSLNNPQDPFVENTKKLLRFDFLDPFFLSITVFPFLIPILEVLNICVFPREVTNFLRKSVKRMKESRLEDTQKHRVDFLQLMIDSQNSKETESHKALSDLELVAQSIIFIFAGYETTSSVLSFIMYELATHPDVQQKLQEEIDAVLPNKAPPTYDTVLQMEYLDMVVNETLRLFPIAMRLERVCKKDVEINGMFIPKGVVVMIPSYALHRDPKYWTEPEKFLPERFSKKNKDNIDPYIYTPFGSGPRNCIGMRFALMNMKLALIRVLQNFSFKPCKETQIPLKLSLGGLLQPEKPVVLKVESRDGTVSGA

A short description of data set [1]: Toxicokinetics, 14-day oral gavage study in CD-1 mice. Conditions: 25 mg/kg/day oral, 14 days.
Data set [2] is described as follows: Toxicokinetics, 14-day study in cynomolgus monkeys. The following applies: 300 mg/kg/day oral, Day 14.
Another data set has as its target CYP3A4 (Homo sapiens, UniProt P08684).
Data set [3] can be described thus: Phase 1 first-in-human study, pharmacokinetics in plasma. Conditions: cohort B, 4 mg PO at 0 and +10 hours.

A number of entries come with more than one value. This list holds those alone. An entry can have further records. Values given together differ, and nothing given here explains why; they may come from other doses, times, organisms or constructs than stated.

For the compound `COCCC1CC2CN3CCc4c([nH]c5ccccc45)C(C(=O)OC)(C2)C13` (racemic), the “18-MC as percentage of circulating drug-related material” value is “less than 1% and < 1%” in data set [1]; “less than 3% and < 3%” in data set [2]. The concentration for half-maximal inhibition (IC50) at CYP3A4 is 13 µM and > 100 µM. For the same compound, the “Cmax, Average” value in data set [3] is “about 30 ng/mL and 30 ng/mL”.
